Assay results from paper doi:10.1101/410092.
No constants are given. Whether binding was seen depends on the method and setting. In cells and extracts the contact can be indirect. Some entries that bind do so weakly or less than the wild type. Tags and fused reporters may be left off the sequences shown.

Columns and labels:
Assay in all cases: co-IP
[1] = biological target: T1, Unc93b1^S282A, 3xFLAG-tagged (mouse) (UniProt Q8VCW4)
T1 sequence: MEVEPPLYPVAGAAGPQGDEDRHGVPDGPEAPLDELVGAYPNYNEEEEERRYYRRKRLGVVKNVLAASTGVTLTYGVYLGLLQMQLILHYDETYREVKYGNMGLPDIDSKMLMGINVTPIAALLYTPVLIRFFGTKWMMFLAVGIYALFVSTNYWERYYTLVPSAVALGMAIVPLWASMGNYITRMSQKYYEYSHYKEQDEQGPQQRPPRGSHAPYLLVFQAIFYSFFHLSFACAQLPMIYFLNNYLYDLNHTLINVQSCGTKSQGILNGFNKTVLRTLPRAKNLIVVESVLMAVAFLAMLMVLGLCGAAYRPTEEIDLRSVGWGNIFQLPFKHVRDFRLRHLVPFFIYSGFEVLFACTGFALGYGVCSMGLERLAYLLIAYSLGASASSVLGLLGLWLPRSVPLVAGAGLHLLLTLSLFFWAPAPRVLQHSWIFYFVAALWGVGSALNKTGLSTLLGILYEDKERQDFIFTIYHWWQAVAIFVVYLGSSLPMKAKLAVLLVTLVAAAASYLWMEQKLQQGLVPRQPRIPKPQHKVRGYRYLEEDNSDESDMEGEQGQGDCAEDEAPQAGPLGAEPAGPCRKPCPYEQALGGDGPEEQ

[2] = biological target: T2, Unc93b1^SKN (SKN to AAA at residues 282-284), 3xFLAG-tagged (mouse) (UniProt Q8VCW4)
T2 sequence: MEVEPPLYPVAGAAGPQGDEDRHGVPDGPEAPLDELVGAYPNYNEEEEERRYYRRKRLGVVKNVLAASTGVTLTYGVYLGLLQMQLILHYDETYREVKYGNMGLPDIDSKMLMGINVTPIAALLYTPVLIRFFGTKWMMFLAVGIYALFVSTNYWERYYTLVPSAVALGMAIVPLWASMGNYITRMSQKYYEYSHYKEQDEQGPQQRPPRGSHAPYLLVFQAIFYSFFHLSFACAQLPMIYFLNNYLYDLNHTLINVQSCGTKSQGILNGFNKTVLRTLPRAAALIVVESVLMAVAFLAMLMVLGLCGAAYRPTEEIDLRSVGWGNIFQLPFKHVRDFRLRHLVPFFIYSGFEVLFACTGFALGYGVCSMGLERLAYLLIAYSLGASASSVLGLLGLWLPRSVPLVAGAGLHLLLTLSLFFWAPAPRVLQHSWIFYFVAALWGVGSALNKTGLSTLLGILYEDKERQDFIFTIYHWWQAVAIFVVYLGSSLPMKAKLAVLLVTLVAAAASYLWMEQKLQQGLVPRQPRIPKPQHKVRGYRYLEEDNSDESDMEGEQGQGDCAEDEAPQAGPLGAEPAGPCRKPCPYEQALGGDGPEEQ

[3] = biological target: T3, Unc93b1 wildtype, 3xFLAG-tagged (mouse) (UniProt Q8VCW4)
T3 sequence: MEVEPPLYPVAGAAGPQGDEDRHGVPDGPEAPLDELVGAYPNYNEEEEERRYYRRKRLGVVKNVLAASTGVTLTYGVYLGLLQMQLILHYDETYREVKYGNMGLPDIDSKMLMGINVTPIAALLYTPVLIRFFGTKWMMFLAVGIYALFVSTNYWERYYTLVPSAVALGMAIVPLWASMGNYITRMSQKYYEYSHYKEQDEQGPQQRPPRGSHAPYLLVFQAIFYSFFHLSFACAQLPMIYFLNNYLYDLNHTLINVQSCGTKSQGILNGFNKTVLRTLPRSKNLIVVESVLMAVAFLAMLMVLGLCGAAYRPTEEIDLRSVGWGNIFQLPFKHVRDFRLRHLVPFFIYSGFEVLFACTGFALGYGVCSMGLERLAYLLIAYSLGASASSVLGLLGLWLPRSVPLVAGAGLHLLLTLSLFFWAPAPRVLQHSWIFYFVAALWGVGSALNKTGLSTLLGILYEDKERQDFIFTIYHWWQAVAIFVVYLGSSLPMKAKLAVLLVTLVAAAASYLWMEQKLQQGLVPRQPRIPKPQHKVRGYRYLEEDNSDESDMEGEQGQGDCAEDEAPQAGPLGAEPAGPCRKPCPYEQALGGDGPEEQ

[4] = biological target: T4, Unc93b1 triple-alanine mutant of amino acids 276-278, 3xFLAG-tagged (mouse) (UniProt Q8VCW4)
T4 sequence: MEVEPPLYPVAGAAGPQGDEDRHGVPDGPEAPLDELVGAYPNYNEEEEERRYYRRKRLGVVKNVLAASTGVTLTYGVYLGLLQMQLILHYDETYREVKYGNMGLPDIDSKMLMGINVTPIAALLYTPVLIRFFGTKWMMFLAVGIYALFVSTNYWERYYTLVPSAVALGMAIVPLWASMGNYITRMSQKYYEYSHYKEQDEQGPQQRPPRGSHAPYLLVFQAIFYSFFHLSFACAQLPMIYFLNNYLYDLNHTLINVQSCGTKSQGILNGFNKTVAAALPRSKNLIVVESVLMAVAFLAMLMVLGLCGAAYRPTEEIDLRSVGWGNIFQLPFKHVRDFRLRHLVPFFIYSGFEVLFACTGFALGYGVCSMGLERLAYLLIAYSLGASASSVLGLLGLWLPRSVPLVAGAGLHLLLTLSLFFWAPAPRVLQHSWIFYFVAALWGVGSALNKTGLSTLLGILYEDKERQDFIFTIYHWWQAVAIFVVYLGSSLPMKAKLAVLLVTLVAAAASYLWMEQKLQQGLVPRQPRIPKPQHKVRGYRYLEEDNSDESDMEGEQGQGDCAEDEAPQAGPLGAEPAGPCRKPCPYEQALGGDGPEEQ

B1: TLR9, HA-tagged (receptor, UniProt Q9EQU3 26-1032)
chain: LGTLPAFLPCELKPHGLVDCNWLFLKSVPRFSAAASCSNITRLSLISNRIHHLHNSDFVHLSNLRQLNLKWNCPPTGLSPLHFSCHMTIEPRTFLAMRTLEELNLSYNGITTVPRLPSSLVNLSLSHTNILVLDANSLAGLYSLRVLFMDGNCYYKNPCTGAVKVTPGALLGLSNLTHLSLKYNNLTKVPRQLPPSLEYLLVSYNLIVKLGPEDLANLTSLRVLDVGGNCRRCDHAPNPCIECGQKSLHLHPETFHHLSHLEGLVLKDSSLHTLNSSWFQGLVNLSVLDLSENFLYESITHTNAFQNLTRLRKLNLSFNYRKKVSFARLHLASSFKNLVSLQELNMNGIFFRLLNKYTLRWLADLPKLHTLHLQMNFINQAQLSIFGTFRALRFVDLSDNRISGPSTLSEATPEEADDAEQEELLSADPHPAPLSTPASKNFMDRCKNFKFTMDLSRNNLVTIKPEMFVNLSRLQCLSLSHNSIAQAVNGSQFLPLTNLQVLDLSHNKLDLYHWKSFSELPQLQALDLSYNSQPFSMKGIGHNFSFVTHLSMLQSLSLAHNDIHTRVSSHLNSNSVRFLDFSGNGMGRMWDEGGLYLHFFQGLSGLLKLDLSQNNLHILRPQNLDNLPKSLKLLSLRDNYLSFFNWTSLSFLPNLEVLDLAGNQLKALTNGTLPNGTLLQKLDVSSNSIVSVVPAFFALAVELKEVNLSHNILKTVDRSWFGPIVMNLTVLDVRSNPLHCACGAAFVDLLLEVQTKVPGLANGVKCGSPGQLQGRSIFAQDLRLCLDEVLSWDCFGLSLLAVAVGMVVPILHHLCGWDVWYCFHLCLAWLPLLARSRRSAQTLPYDAFVVFDKAQSAVADWVYNELRVRLEERRGRRALRLCLEDRDWLPGQTLFENLWASIYGSRKTLFVLAHTDRVSGLLRTSFLLAQQRLLEDRKDVVVLVILRPDAHRSRYVRLRQRLCRQSVLFWPQQPNGQGGFWAQLSTALTRDNRHFYNQNFCRGPTAE
In the case of B1, the binding [1] is reported as “binds”, the binding [2] is reported as “binds” and the binding [3] is reported as “binds”. For the same binder, the binding [4] was “no binding”.
